Drawing on publication doi:10.1101/2022.11.02.514824, this text covers binding for three molecules.

Results are given in words; binding and its absence hold for the method and conditions named. Some binding calls cover weakened binding; strength is not graded here.

Holding throughout (assay): co-purification of co-expressed subunits
The target of one test is T1, SEPT6 (human) (UniProt Q14141).
T1 sequence: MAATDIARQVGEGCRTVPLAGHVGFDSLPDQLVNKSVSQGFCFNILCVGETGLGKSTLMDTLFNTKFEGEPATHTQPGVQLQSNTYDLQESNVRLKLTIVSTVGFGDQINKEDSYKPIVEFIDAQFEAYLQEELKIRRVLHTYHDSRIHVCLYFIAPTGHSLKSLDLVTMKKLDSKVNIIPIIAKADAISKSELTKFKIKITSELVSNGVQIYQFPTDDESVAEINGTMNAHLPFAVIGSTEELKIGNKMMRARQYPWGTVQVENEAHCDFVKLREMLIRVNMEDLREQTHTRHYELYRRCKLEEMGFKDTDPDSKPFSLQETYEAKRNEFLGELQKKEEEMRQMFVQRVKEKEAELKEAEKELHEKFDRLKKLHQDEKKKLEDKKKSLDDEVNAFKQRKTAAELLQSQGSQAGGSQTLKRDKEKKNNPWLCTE

The target of the next test is T2, SEPT7 (human) (UniProt Q16181).
T2 sequence: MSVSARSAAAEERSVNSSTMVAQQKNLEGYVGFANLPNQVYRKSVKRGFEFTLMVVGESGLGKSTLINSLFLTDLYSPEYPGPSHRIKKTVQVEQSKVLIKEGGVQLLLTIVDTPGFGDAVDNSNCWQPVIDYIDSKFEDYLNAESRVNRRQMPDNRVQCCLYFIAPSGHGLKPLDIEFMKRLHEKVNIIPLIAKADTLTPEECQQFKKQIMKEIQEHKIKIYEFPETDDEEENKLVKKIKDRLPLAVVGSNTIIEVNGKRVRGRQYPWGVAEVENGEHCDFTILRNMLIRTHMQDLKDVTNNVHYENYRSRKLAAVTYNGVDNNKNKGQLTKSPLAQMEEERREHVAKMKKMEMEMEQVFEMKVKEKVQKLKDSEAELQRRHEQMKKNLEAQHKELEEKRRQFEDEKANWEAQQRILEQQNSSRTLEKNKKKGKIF

The target of a further test is T3, SEPT9_i1 (human), Q9UHD8.
T3 chain: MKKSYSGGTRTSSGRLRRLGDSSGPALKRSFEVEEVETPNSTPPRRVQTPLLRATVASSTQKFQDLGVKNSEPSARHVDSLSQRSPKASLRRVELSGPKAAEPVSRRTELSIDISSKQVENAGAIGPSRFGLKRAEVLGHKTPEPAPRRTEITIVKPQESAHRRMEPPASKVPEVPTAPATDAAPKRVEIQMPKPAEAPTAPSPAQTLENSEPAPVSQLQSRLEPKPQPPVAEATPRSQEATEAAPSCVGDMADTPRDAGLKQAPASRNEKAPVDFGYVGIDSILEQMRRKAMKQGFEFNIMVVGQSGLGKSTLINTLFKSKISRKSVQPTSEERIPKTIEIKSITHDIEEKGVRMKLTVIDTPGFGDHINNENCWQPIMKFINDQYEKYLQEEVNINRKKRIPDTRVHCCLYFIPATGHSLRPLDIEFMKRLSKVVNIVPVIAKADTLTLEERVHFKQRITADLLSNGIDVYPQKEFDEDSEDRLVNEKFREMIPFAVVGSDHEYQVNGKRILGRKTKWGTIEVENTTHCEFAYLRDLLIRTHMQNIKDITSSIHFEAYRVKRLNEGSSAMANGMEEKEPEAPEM
To be noted: remark: other sources report otherwise.

B1: SEPT7 (protein, UniProt Q16181 1-437)
chain: MSVSARSAAAEERSVNSSTMVAQQKNLEGYVGFANLPNQVYRKSVKRGFEFTLMVVGESGLGKSTLINSLFLTDLYSPEYPGPSHRIKKTVQVEQSKVLIKEGGVQLLLTIVDTPGFGDAVDNSNCWQPVIDYIDSKFEDYLNAESRVNRRQMPDNRVQCCLYFIAPSGHGLKPLDIEFMKRLHEKVNIIPLIAKADTLTPEECQQFKKQIMKEIQEHKIKIYEFPETDDEEENKLVKKIKDRLPLAVVGSNTIIEVNGKRVRGRQYPWGVAEVENGEHCDFTILRNMLIRTHMQDLKDVTNNVHYENYRSRKLAAVTYNGVDNNKNKGQLTKSPLAQMEEERREHVAKMKKMEMEMEQVFEMKVKEKVQKLKDSEAELQRRHEQMKKNLEAQHKELEEKRRQFEDEKANWEAQQRILEQQNSSRTLEKNKKKGKIF
Consider B1, for which, in the test with SEPT6 (human), the binding result was “binds”.

B2: SEPT9_i1 (protein, UniProt Q9UHD8 1-586)
chain: MKKSYSGGTRTSSGRLRRLGDSSGPALKRSFEVEEVETPNSTPPRRVQTPLLRATVASSTQKFQDLGVKNSEPSARHVDSLSQRSPKASLRRVELSGPKAAEPVSRRTELSIDISSKQVENAGAIGPSRFGLKRAEVLGHKTPEPAPRRTEITIVKPQESAHRRMEPPASKVPEVPTAPATDAAPKRVEIQMPKPAEAPTAPSPAQTLENSEPAPVSQLQSRLEPKPQPPVAEATPRSQEATEAAPSCVGDMADTPRDAGLKQAPASRNEKAPVDFGYVGIDSILEQMRRKAMKQGFEFNIMVVGQSGLGKSTLINTLFKSKISRKSVQPTSEERIPKTIEIKSITHDIEEKGVRMKLTVIDTPGFGDHINNENCWQPIMKFINDQYEKYLQEEVNINRKKRIPDTRVHCCLYFIPATGHSLRPLDIEFMKRLSKVVNIVPVIAKADTLTLEERVHFKQRITADLLSNGIDVYPQKEFDEDSEDRLVNEKFREMIPFAVVGSDHEYQVNGKRILGRKTKWGTIEVENTTHCEFAYLRDLLIRTHMQNIKDITSSIHFEAYRVKRLNEGSSAMANGMEEKEPEAPEM
With B2, the binding result in the test with SEPT7 (human) is recorded as “binds”.

B3: SEPT9_i1, Q9UHD8 1-586 (protein)
chain: MKKSYSGGTRTSSGRLRRLGDSSGPALKRSFEVEEVETPNSTPPRRVQTPLLRATVASSTQKFQDLGVKNSEPSARHVDSLSQRSPKASLRRVELSGPKAAEPVSRRTELSIDISSKQVENAGAIGPSRFGLKRAEVLGHKTPEPAPRRTEITIVKPQESAHRRMEPPASKVPEVPTAPATDAAPKRVEIQMPKPAEAPTAPSPAQTLENSEPAPVSQLQSRLEPKPQPPVAEATPRSQEATEAAPSCVGDMADTPRDAGLKQAPASRNEKAPVDFGYVGIDSILEQMRRKAMKQGFEFNIMVVGQSGLGKSTLINTLFKSKISRKSVQPTSEERIPKTIEIKSITHDIEEKGVRMKLTVIDTPGFGDHINNENCWQPIMKFINDQYEKYLQEEVNINRKKRIPDTRVHCCLYFIPATGHSLRPLDIEFMKRLSKVVNIVPVIAKADTLTLEERVHFKQRITADLLSNGIDVYPQKEFDEDSEDRLVNEKFREMIPFAVVGSDHEYQVNGKRILGRKTKWGTIEVENTTHCEFAYLRDLLIRTHMQNIKDITSSIHFEAYRVKRLNEGSSAMANGMEEKEPEAPEM
On to B3, for which the binding entry with SEPT9_i1 (human), Q9UHD8 was “binds”.
